Source: publication doi:10.1101/2021.07.23.453513
Results are given in words; binding and its absence hold for the method and conditions named. In cells and extracts the contact can be indirect. Some results given as binding are weak or reduced against the parent protein; the word gives no strength.

Amino acid sequences for entries named in this document (tags omitted).
UniProt Q9CQW9: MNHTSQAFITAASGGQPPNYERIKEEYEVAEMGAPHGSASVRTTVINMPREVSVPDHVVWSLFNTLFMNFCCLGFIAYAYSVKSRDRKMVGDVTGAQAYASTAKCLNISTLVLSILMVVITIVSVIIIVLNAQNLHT

Target: Interferon induced transmembrane protein 3 (Ifitm3) (mouse (endogenous in BM-DCs)) (UniProt Q9CQW9)
Assay: co-IP

B1: Nogo-B (reticulon 4 isoform) (protein, UniProt Q99P72-5 1-356)
chain: MEDIDQSSLVSSSADSPPRPPPAFKYQFVTEPEDEEDEEDEEEEEDDEDLEELEVLERKPAAGLSAAPVPPAAAPLLDFSSDSVPPAPRGPLPAAPPTAPERQPSWERSPAASAPSLPPAAAVLPSKLPEDDEPPARPPAPAGASPLAEPAAPPSTPAAPKRRGSGSVVVDLLYWRDIKKTGVVFGASLFLLLSLTVFSIVSVTAYIALALLSVTISFRIYKGVIQAIQKSDEGHPFRAYLESEVAISEELVQKYSNSALGHVNSTIKELRRLFLVDDLVDSLKFAVLMWVFTYVGALFNGLTLLILALISLFSIPVIYERHQAQIDHYLGLANKSVKDAMAKIQAKIPGLKRKAE
Which binding does the source give for B1 here?
The binding was “binds”.
